Source: PMC5962642, “Dynamic imaging of adaptive stress response pathway activation for prediction of drug induced liver injury” (Archives of Toxicology, 2018)

Experiments:
[1] = ref livertox.nih.gov database; cited from earlier work
[2] = two classes made from the FDA DILI-concern labeling
[3] = C-max obtained from FDA or literature; ref per compound (FDA, Dailymed, Xu, O’Brien, Khetani, Regenthal, Gustafsson, Dawson, Ogutu, Patel, Schmidt, Ravic, Keisu, Hu, Wagner); cited from earlier work

## COC(=O)C1=C(C)NC(C)=C(C(=O)OC)C1c1ccccc1[N+](=O)[O-] [Nifedipine]
[1]
  Metab (metabolic potential): YES
[2]
  Severity class: Non-sev.
[3]
  Cmax: 430 nM
